Consider 48 sequences from paper PMC7862700.

Sequences of proteins named here, by UniProt entry; tags and fusion partners are left off. A change or cut given only in a name is not applied to a line headed by its entry.
UniProt P50549: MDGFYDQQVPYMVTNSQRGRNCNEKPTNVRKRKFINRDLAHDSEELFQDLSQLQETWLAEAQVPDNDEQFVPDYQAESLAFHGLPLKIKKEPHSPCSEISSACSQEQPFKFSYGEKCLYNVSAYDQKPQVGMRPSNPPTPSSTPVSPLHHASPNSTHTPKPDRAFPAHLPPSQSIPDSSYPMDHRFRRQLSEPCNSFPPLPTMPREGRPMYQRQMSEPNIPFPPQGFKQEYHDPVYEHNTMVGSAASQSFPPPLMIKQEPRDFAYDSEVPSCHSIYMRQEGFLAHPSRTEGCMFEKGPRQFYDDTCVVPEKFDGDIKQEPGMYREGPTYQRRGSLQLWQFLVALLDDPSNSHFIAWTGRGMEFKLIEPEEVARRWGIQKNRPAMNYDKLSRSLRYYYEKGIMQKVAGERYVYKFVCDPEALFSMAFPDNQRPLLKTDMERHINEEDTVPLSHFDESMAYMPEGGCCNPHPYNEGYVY

The list shows a part of the results, in another mix than the full data. For some assays here: At the low end of the ranking, values are background and their order means little. The list shows a part of the results. For some assays here: The exact form of the protein is not confirmed.

Holding throughout (experiment): DAPPL (digital affinity profiling via proximity ligation, sequencing)
What all share (details): 10 mM Tris-HCl pH 7.5, 50 mM NaCl, 1 mM DTT, 4% glycerol, room temperature, 30 min; GST-TFs on glutathione beads, 16-mer random dsDNA library, 0.1% …; high values mean tight binding; double strand, one strand shown; scale: fold enrichment (6-mer frequency, TF over GST control)

The target in one test is T1, ERG (UniProt P11308).
T1 sequence: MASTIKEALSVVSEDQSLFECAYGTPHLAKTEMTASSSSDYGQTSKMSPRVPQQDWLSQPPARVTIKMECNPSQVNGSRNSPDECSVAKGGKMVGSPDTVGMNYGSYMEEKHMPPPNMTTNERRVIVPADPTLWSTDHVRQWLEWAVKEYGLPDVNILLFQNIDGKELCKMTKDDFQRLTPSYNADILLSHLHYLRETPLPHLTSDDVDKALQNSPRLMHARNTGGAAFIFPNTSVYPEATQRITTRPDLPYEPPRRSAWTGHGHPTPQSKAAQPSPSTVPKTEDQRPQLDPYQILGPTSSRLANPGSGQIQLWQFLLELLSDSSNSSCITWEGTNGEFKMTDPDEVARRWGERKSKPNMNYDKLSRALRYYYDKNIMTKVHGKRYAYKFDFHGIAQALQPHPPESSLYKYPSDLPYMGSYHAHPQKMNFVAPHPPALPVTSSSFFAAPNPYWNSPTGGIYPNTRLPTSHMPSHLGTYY

For a further test, the target named is T2, ETV4 (UniProt P43268).
T2 sequence: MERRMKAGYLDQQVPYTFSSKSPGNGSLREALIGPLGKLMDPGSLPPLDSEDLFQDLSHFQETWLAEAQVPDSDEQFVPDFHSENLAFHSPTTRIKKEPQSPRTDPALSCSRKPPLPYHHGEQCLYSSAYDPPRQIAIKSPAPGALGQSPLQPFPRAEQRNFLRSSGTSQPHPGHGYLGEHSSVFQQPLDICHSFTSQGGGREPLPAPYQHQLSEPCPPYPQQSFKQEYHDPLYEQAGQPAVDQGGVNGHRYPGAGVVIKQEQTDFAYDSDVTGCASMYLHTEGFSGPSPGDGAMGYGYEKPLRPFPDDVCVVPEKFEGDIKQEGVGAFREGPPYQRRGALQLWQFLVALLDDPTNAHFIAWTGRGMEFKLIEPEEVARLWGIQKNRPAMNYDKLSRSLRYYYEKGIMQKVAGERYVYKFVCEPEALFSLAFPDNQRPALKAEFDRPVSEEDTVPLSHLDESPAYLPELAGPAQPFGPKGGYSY

For a further test, the target named is ETV1 (UniProt P50549).
The target of a further test is T3, ERF (UniProt P50548).
T3 sequence: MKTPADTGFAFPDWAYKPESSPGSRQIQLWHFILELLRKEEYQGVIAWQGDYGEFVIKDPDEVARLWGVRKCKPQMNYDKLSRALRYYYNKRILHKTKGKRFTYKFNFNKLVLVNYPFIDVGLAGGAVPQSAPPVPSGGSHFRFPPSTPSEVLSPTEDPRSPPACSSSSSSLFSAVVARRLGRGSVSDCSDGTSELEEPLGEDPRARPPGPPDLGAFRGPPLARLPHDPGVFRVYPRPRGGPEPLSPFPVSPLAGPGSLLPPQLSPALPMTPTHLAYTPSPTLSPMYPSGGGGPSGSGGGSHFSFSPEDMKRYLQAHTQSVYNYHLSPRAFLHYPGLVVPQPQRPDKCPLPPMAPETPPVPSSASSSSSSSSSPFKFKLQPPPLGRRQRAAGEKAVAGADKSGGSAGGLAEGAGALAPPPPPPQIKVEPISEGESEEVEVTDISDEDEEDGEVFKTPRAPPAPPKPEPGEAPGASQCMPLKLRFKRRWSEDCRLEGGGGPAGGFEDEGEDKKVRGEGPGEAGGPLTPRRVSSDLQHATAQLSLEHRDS

TAGGCT: the binding signal in the test with ERG was 1.23; with ETV4, 1.11.
The like results for TAGTAC were, in that order, 1.24 and 1.16.
Consider CCATAA, for which the binding signal with ERG came out at 1.17; with ETV4 it was 1.16.
On the same counts, the results for TTGCTA are 1.26 and 1.3.
With TGGACC, the binding signal with ERG turned out to be 1.04; with ETV4, 1.1.
In the case of ATGCTT, the figures for the binding signal with ERG and in the test with ETV4 were 1.32 and 1.45, respectively.
The like results for TTCGTT were, in that order, 1.25 and 1.29.
With AATGTC, the values for the binding signal with ERG and with ETV4 were 1.27 and 1.24, respectively.
Regarding ATTAAT, the binding signal with ERG worked out at 1.21; in the test with ETV4, 1.23.
The like results for ACATCT were, in that order, 1.34 and 1.28.
Turning to TTATAG, the figures for the binding signal with ERG and with ETV4 were 1.04 and 1.24, respectively.
On the same counts, the results for ACTCCT are 1.45 and 1.46.
Consider TTCTTT, for which the values for the binding signal in the test with ERG and with ETV4 were 1.27 and 1.2, respectively.
On the same counts, the results for CATCTT are 1.27 and 1.19.
On the same counts, the results for CACGAA are 1.1 and 1.05.
Take CTGTAA: the values for the binding signal in the test with ERG and in the test with ETV4 were 0.994 and 1.03, respectively.
As to GTTTGG, the binding signal with ERG came to 0.988; in the test with ETV4, 1.05.
On the same counts, the results for TTATAC are 1.35 and 1.42.
On the same counts, the results for TAAGCT are 1.18 and 1.26.
On the same counts, the results for TGCAAA are 1.14 and 1.04.
Consider TCCTAC, for which the binding signal in the test with ERG worked out at 1.42; in the test with ETV4, 1.55.
The like results for ACTTTT were, in that order, 1.21 and 1.29.
The like results for TATCTA were, in that order, 1.18 and 1.2.
In the case of TATGCG, the binding signal in the test with ERG was found to be 1.31; with ETV4, 1.38.
As to CATACT, the binding signal in the test with ERG was 1.27; in the test with ETV4 it was 1.34.
For the sequence TGTACT, the figures for the binding signal with ERG and with ETV4 were 1.24 and 1.49, respectively.
ATAAAC: the binding signal in the test with ERG and with ETV4 was 1.11 in each case.
In the case of TCTTAA, the binding signal with ERG stood at 1.21; with ETV4, 1.27.
The like results for GCTTGC were, in that order, 1.14 and 1.21.
On the same counts, the results for TAGTAA are 0.995 and 0.993.
The like results for AAGTCT were, in that order, 1.12 and 1.12.
ACGTTC: the figures for the binding signal with ERG and with ETV4 were 1.39 and 1.35, respectively.
Take TTTATA: the values for the binding signal with ERG and with ETV4 were 1.29 and 1.44, respectively.
The like results for ATGAAA were, in that order, 1.17 and 1.11.
As to CTTTTA, the binding signal was 1.28 with ERG and 1.31 with ETV4.
As for TTAGTT, the figures for the binding signal in the test with ERG and with ETV4 were 1.24 and 1.33, respectively.
On the same counts, the results for CGTCTA are 1.37 and 1.22.
With CCTCCC, the values for the binding signal with ERG and with ETV4 were 1.47 and 1.57, respectively.
On the same counts, the results for TGCTAC are 1.27 and 1.3.
With ATCTCT, the binding signal was found to be 1.17 with ERG, 1.36 with ETV4, 1.23 with ETV1 and 1.38 with ERF.
For the sequence TGGTTA, the binding signal was found to be 1.13 in the test with ERG, 1.03 with ETV4 and 1.01 with ETV1.
Regarding CGATGA, the binding signal with ERG came to 0.985; with ETV4, 1.04; in the test with ETV1 it was 0.965.
The like results for ATTTAC were, in that order, 1.27, 1.29 and 1.22.
Regarding AAAGGT, the binding signal was found to be 0.971 with ERG, 1.03 in the test with ETV4 and 0.982 in the test with ETV1.
The like results for CTGCCT were, in that order, 1.18, 1.26 and 1.24.
TGTAAT: the binding signal in the test with ERG turned out to be 1.2; in the test with ETV4, 1.17; with ETV1, 1.17; with ERF, 1.14.
For CTTCGC, the binding signal in the test with ERG turned out to be 1.53; with ETV4, 1.4; with ETV1 it was 1.52.
On the same counts, the results for ATACAG are 1.16, 1.1 and 1.11.
